Results reported in US20120237966A1.
No constants are given. Whether binding was seen depends on the method and setting. Some results given as binding are weak or reduced against the parent protein; the word gives no strength.

Protein sequences, listed by entry. Tags and fused reporters are not part of them. Lines headed by an entry give the natural chain unless they say otherwise; changes in a name come on top.
UniProt Q9SQI2: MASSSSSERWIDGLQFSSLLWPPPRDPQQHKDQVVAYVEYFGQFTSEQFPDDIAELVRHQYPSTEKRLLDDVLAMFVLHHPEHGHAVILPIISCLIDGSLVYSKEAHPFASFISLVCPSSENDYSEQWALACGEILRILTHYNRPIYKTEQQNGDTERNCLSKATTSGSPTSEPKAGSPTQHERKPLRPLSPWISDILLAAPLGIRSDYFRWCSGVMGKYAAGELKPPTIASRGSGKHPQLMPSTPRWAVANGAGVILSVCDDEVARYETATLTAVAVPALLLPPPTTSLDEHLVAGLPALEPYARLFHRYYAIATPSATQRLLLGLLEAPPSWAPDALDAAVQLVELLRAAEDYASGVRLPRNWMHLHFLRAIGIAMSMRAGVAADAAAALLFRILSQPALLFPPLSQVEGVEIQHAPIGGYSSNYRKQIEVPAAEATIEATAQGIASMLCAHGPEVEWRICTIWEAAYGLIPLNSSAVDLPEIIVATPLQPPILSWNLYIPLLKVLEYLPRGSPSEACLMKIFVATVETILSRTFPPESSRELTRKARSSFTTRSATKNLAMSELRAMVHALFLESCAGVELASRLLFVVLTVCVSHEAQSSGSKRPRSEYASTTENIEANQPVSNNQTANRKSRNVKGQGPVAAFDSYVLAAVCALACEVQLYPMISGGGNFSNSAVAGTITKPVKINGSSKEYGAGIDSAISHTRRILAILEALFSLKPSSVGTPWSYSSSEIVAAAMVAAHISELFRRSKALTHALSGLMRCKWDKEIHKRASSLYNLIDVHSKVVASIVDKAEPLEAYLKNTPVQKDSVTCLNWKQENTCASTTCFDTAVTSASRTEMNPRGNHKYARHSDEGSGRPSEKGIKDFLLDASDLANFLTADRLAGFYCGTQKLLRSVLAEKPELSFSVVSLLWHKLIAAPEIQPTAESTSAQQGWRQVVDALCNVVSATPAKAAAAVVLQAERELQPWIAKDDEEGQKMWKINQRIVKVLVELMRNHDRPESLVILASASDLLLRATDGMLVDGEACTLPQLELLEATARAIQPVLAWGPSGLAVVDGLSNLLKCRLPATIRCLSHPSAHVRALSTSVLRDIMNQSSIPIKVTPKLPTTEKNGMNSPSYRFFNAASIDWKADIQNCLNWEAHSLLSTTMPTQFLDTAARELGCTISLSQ
UniProt Q9C9W9: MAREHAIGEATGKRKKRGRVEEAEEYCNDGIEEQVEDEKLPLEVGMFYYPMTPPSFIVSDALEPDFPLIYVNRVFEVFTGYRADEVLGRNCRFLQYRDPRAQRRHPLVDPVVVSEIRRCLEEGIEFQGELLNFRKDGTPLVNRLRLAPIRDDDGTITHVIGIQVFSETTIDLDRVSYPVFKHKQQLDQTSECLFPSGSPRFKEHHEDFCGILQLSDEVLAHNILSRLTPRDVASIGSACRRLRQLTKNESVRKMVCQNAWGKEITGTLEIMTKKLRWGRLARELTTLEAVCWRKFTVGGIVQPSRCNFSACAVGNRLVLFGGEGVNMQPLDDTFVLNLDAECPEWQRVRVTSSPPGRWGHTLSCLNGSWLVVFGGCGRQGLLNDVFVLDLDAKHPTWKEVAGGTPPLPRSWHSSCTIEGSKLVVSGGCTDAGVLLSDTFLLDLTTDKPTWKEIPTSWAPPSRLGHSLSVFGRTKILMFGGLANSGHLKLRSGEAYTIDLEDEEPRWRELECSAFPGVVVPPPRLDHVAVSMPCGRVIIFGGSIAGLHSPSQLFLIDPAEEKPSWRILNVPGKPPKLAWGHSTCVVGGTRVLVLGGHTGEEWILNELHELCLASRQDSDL

Target: GI-Gal4 (Arabidopsis thaliana; yeast) (UniProt Q9SQI2)
Experiment: inferred from UAS-luciferase reporter in HEK 293T cells without light

“HA-N-LOV-VP16 WT (from UniProt Q9C9W9 1-174)” was tested, and the binding was “binds”.
